Among all 300,000 compounds or so, about 5,400 (1.8%) were called active. The shares of active, inactive and inconclusive entries below differ from those in the screen. Calls follow the shape of the full dose curve; tested in HEK293 cells. Where the call is inconclusive, the potency comes from a doubtful curve fit.
Experiment: qHTS for inhibitors of binding or entry into cells for Marburg Virus
Details: Marburg virus pseudotyped entry inhibition, cell reporter; activity change, negative = inhibition: at 37.8 µM (top of the series) unless noted
% is scaled to controls: 0 for no effect and ±100 for the full control effect; potency is read from the fitted curve at half-maximal effect.

Compound | Potency | activity change, negative = inhibition
O=C(O)CN1C(=O)/C(=C\C(Br)=C\c2ccccc2)SC1=S | inconclusive: 0.316 µM [inhibitor, partial curve, poor fit] | –
COc1ccc(C(=O)OCC(=O)NC23CC4CC(CC(C4)C2)C3)c(OC)c1OC | inconclusive: 1.26 µM [inhibitor, single point] | –
COc1ccc(C(=O)NCCc2nnc(SCC(=O)Nc3ccccc3)n2C)cc1 | inconclusive: 1.58 µM [activator, partial curve, poor fit] | –
COc1cc(C(=O)N2CCc3ccccc32)cc(OC)c1OC | inconclusive: 3.98 µM [inhibitor, full curve, poor fit] | –
COc1ccc(S(=O)(=O)N2CCOC23CCN(S(=O)(=O)c2cc(C)ccc2C)CC3)cc1 | – | inactive: -9.79%
COc1ccc(Nc2nc(N)nc(CSC(=S)N3CCCCC3C)n2)cc1 (stereo not given) | inconclusive: 11.2 µM [inhibitor, single point] | –
Cc1ccc(-c2nc(C#N)c(NCCN3CCCCC3)o2)cc1 | inconclusive: 29.1 µM [inhibitor, single point] | –
Nc1nc2sc3c(c2cc1C(=O)N1CCOCC1)CCCC3 | inconclusive: 22.4 µM [activator, single point] | –
O=c1c(/C=N/O)c(Nc2ccccc2)nc2ccccn12 | inconclusive: 29.1 µM [inhibitor, single point] | –
Cc1cc(NC(=O)Cn2c(=O)nc(-c3ccccc3F)c3cc(Cl)ccc32)ccc1Br | inconclusive: 6.31 µM [activator, single point] | –
C/C(=N/NC(=O)Cc1cccs1)c1ccco1 | – | inactive: 13.5%
CN1CCN(CC(=O)Nc2ccc(Oc3ccccc3)cc2)CC1 | inconclusive: 23.1 µM [inhibitor, single point] | –
O=C(c1ccc(S(=O)(=O)N2CCCCC2)cc1)N1CCN(CCN2C(=O)c3cccc4cccc(c34)C2=O)CC1 | inconclusive: 6.31 µM [inhibitor, single point] | –
Cc1ccccc1NC(=O)Cc1nnc(SCc2ccc(Cl)c(Cl)c2)n1C | inconclusive: 14.6 µM [inhibitor, partial curve, poor fit] | –
Oc1ccc(-c2nc3ccccc3nc2-c2ccccc2)cc1 | inconclusive: 7.94 µM [inhibitor, partial curve, poor fit] | –
CCOC(=O)c1c(C)nc2cc(C)cc(C)n12 | inconclusive: 11.2 µM [activator, partial curve, poor fit] | –
Cc1cc(N)ccc1-c1cc2ccccc2oc1=O | inconclusive: 35.5 µM [inhibitor, single point] | –
CCOc1ccc(S(=O)(=O)N(C)c2ccc(OCC(=O)Nc3nc4ccccc4s3)cc2)cc1 | inconclusive: 7.08 µM [inhibitor, partial curve] | –
CCn1nnnc1SCC(=O)N1c2ccccc2Sc2ccccc21 | inconclusive: 20 µM [inhibitor, partial curve, poor fit] | –
Cc1cc(C)n(-c2c(F)c(F)c(CN3CCOCC3)c(F)c2F)n1 | – | inactive: 2.68%
COc1cc(SC)ccc1C(=O)NCCOc1ccc(Cl)cc1 | – | inactive: -2.03%
N/C(=N\OC(=O)c1ccc(OCC(F)(F)F)nc1)c1ccc(Cl)cc1 | – | inactive: -4.82% [at 46.1 µM]
O=C(NC(=S)Nc1ccc(Cl)cn1)c1cccs1 | inconclusive: 17.8 µM [activator, partial curve, poor fit] | –
O=C(Cc1ccc(F)cc1)NCC1CCCO1 (stereo not given) | – | inactive: 10.1% [at 46.1 µM]

Compound | Potency | activity change, negative = inhibition
Cc1cc(NC(=O)COC(=O)C2CC(=O)N(c3ccccc3Cl)C2)no1 (stereo not given) | – | inactive: 0.58% [at 46.1 µM]
Oc1ccc(-c2csc(Nc3ncccn3)n2)cc1O | inconclusive: 7.08 µM [inhibitor, full curve, poor fit] | –
Cc1ccc(NC(=O)COC(=O)/C=C/c2cccc(Cl)c2)cc1S(=O)(=O)N1CCOCC1 | inconclusive: 15.8 µM [activator, partial curve, poor fit] | –
Cc1noc(C(F)(F)F)c1C(=O)NNC(=O)c1ccccc1 | – | inactive: -3.58%
CCCCNC(=O)c1cc2c(=O)n3cccc(C)c3nc2n(Cc2ccncc2)c1=N | inconclusive: 8.2 µM [inhibitor, partial curve, poor fit] | –
Cc1ccccc1Nc1nc(N)nc(COC(=O)[C@@H](NC(=O)c2ccco2)C(C)C)n1 | – | inactive: -3.86% [at 46.1 µM]
Cc1c(NC(=S)N2CCN(c3cccc(Cl)c3)CC2)c(=O)n(-c2ccccc2)n1C | inconclusive: 0.794 µM [inhibitor, single point] | –
Cc1cc(NC(=O)CN2C(=O)NC3(CCC(C)CC3)C2=O)no1 (stereo not given) | – | inactive: 27.1%
N/C(=N\OC(=O)COc1ccc(Br)cc1Cl)c1cccnc1 | inconclusive: 6.51 µM [activator, full curve] | –
COCCCN=C1NN=C(c2cc(C)n(Cc3ccco3)c2C)CS1 | active: 16.4 µM | –
N#CC(c1cccc(Cl)c1)c1ccc2c(C(F)(F)F)cc(C(F)(F)F)nc2n1 (stereo not given) | inconclusive: 2.82 µM [inhibitor, full curve, poor fit] | –
COc1ccc(N2CCN(C(=O)CNS(=O)(=O)c3ccc(Br)s3)CC2)cc1 | inconclusive: 6.31 µM [activator, single point] | –
CC(NC(=O)c1ccc(F)cc1)c1nc2ccccc2[nH]1 (stereo not given) | – | inactive: 5.3% [at 46.1 µM]
CCc1ccc(NC(=O)Cn2c(=O)n(-c3cc(OC)c(OC)c(OC)c3)c(=O)c3ccccc32)cc1 | – | inactive: -1.71% [at 46.1 µM]
Cc1cc(C(=O)C(=O)Nc2nncs2)c(C)n1-c1ccc(Cl)cc1 | inconclusive: 35.5 µM [inhibitor, single point] | –
O=C(CN1CCC(C(=O)O)CC1)Nc1ccccc1Oc1ccccc1 | – | inactive: 13% [at 46.1 µM]
Cc1ccc(-n2ncc(C(=O)Nc3cc(Cl)ccc3Cl)c2C2CCNCC2)cc1 | inconclusive: 35.5 µM [inhibitor, single point] | –
FC(F)(F)c1cc(-c2ccccc2)nc(N2CCOCC2)n1 | – | inactive: -24.9%
Cc1ccc(S(=O)(=O)N(C)CC(=O)Nc2nc3ccccc3s2)cc1 | inconclusive: 20.6 µM [inhibitor, single point] | –
Cc1ccc(NC(=S)NC(=O)/C=C/c2ccco2)c(O)c1 | – | inactive: -18% [at 46.1 µM]
CC1CCN(C(=O)C(C)NCc2ccc(F)cc2)CC1 (stereo not given) | – | inactive: 16.9% [at 46.1 µM]
Cc1ccc(CNC(=O)Cn2c(=O)oc3ccccc32)o1 | – | inactive: -0.36%
c1cc2c(c(NCc3ccncc3)c1)CCCC2 | – | inactive: -3.69%
CC(C)(C)NC(=O)C(c1ccncc1)N(Cc1cccs1)C(=O)Cn1nnc(-c2ccc(F)cc2)n1 (stereo not given) | inconclusive: 6.31 µM [inhibitor, partial curve, poor fit] | –

Three entries already listed, sorted by number of heavy atoms, smallest number first:
Compound | Potency | activity change, negative = inhibition
Cc1ccc(NC(=S)NC(=O)/C=C/c2ccco2)c(O)c1 | – | inactive: -18% [at 46.1 µM]
O=C(CN1CCC(C(=O)O)CC1)Nc1ccccc1Oc1ccccc1 | – | inactive: 13% [at 46.1 µM]
Cc1ccc(-n2ncc(C(=O)Nc3cc(Cl)ccc3Cl)c2C2CCNCC2)cc1 | inconclusive: 35.5 µM [inhibitor, single point] | –

Some values from the entries so far.
`COCCCN=C1NN=C(c2cc(C)n(Cc3ccco3)c2C)CS1` | Potency: active: 16.4 µM
`Cc1noc(C(F)(F)F)c1C(=O)NNC(=O)c1ccccc1` | activity change, negative = inhibition: inactive: -3.58%

Further records.

Compound | Potency | activity change, negative = inhibition
Cc1cccc(Cn2nnc3c(=O)[nH]c(C4CCCN(C(=O)c5ccccc5Cl)C4)nc32)c1 (stereo not given) | inconclusive: 12.6 µM [activator, single point] | –
Cc1cnc(C(=O)Nc2nnc(C(C)C)s2)cn1 | inconclusive: 18.3 µM [activator, partial curve] | –
COc1cc(/C=C/C(=O)N2c3ccccc3Sc3ccc(C(F)(F)F)cc32)cc(OC)c1OC | inconclusive: 0.282 µM [activator, partial curve, poor fit] | –
COc1ccc(/C=C/C(=O)Nc2cc(C)nn2-c2nc3ccccc3[nH]2)cc1 | inconclusive: 35.5 µM [inhibitor, single point] | –
O=c1cc(N2CCCCC2)c(-c2ccccc2)nn1Cc1c(Cl)cccc1Cl | inconclusive: 12.6 µM [inhibitor, single point] | –
CN(C)C(CNC(=O)c1ccccc1OCc1ccc(Cl)cc1)c1ccco1 (stereo not given) | inconclusive: 35.5 µM [inhibitor, single point] | –
Cc1c(C(=O)N/N=C/c2ccc(N(C)C)cc2)[nH]c2ccc(Cl)cc12 | – | inactive: -23.3%
CC1=C(C(=O)OCC2CCCO2)C(c2ccncc2)C2=C(CCCC2=O)N1 (stereo not given) | inconclusive: 3.98 µM [activator, single point] | –
CCCCn1c(=N)n(CCOc2ccc(C)cc2)c2ccccc21 | inconclusive: 1.64 µM [inhibitor, partial curve, poor fit] | –
Cn1c(=O)c2c(ncn2Cc2ccc(Cl)cc2)n(C)c1=O | inconclusive: 2.51 µM [inhibitor, full curve] | –
c1ccc(N2CCN(c3nc(-c4ccccn4)nc4ccccc34)CC2)cc1 | inconclusive: 20 µM [inhibitor, partial curve, poor fit] | –
CC(=O)Nc1ccc2c(CSc3nnc(-c4cccnc4)n3-c3ccc(C)cc3C)cc(=O)oc2c1 | – | inactive: -14.5%
Cn1c(=Nc2ccccc2)sc2ccccc21 | – | inactive: 16.6%
CC1CCCCN1c1ncnc2ccccc12 (stereo not given) | inconclusive: 29.1 µM [inhibitor, single point] | –
Cc1ccc(NS(=O)(=O)c2ccc(NC(=O)c3cccs3)cc2)cc1 | inconclusive: 11.2 µM [inhibitor, partial curve, poor fit] | –
COC(=O)c1ccc(C)c(NC(=O)CCc2ccc(OC)c(OC)c2)c1 | inconclusive: 6.51 µM [inhibitor, single point] | –
O=c1[nH]c2ccccc2c2cn(-c3ccccc3)nc12 | inconclusive: 8.91 µM [activator, partial curve, poor fit] | –
C/C=C(\C)c1nnc(NC(=O)OCC)s1 | – | inactive: 14.7% [at 46.1 µM]
Cc1c(C(=O)N/N=C/c2cccs2)nc2ccccn12 | inconclusive: 2.82 µM [activator, single point] | –
O=C(CSc1nc2cc(S(=O)(=O)N3CCOCC3)ccc2o1)Nc1c(F)cccc1F | inconclusive: 0.562 µM [activator, partial curve, poor fit] | –
COc1cccc(CNC(=O)CN(C)S(=O)(=O)c2ccc(Br)s2)c1 | – | inactive: -29.1% [at 46.1 µM]
COC(=O)[C@@H](NC(=O)O[C@@H]1C(=O)c2ccc(OC)cc2O[C@H]1c1cccc(C(F)(F)F)c1)C(C)C | inconclusive: 20.6 µM [inhibitor, single point] | –

Reference: PubChem BioAssay AID540276 (National Center for Advancing Translational Sciences (NCATS), 2011)
